Reference: patent publication US20090076278A1, “METHINE DYES AND USES OF THE SAME” (KABUSHIKI KAISHA HAYASHIBARA SEIBUTSU KAGAKU KENKYUJO, priority 2006, published 2009)

Experiment: Electric property of optical recording medium (DDU-1000 optical disk evaluation apparatus)
Details: 658 nm
Description: According to conventional manner, an optical recording medium was prepared by successively multi-layering substrate 1, recording layer 2, reflection layer 3, and protection layer 4 in this order, as shown in FIG. 3. Any one of the methine dyes represented by Chemical Formulae 1 to 3, 8 and 36 in an adequate amount of TFP to give a concentration of 1.6% by weight, and the mixture was heated for awhile, and energized with ultrasonic for dissolution. According to conventional manner, the resulting solution was homogeneously coated over either side of polycarbonate disk substrate 1 (12 cm in diameter, 0.6 mm in thickness) in a rotatory manner and dried to form recording layer 2, made of absorption material, 100 nm in thickness. Thereafter, silver was evaporated unto substrate 1 up to give a layer with 30 to 100 nm in thickness and to form reflection layer 3 to be closely attached to recording layer 2, which was then closely adhered to polycarbonate disk protection layer 4 (12 cm in diameter, 0.6 mm in thickness) to form an optical recording medium for testing. In parallel, except for using the conventionally known methine dye represented by Chemical Formula 65 or 68 in place of the methine dye of the present invention, an optical recording medium as a control was prepared similarly as in the above.
Using “DDU-1000 MODEL”, a commercialized optical disk evaluation apparatus, produced by Pulstech Industries Co., Ltd., Shizuoka, Japan, the seven types of optical recording media were measured for recording sensitivity and electric property (reproduction light power of 0.7 mW) when recorded with test signals of modified 8-16 at a recording light wavelength of 658 nm (NA 0.60) and in data transmission rates of 11.08 Mbps (1× write drive), 44.32 Mbps (4× write drive), and 88.64 Mbps (8× write drive). The results are in Table 3 in parallel.

Row | Compound | 14TM: 14TM Signal modulation rate (1 × write drive (11.08 Mbps)) | Jitter: Jitter value (1 × write drive (11.08 Mbps)) [ns] | PO: Recording power (1 × write drive (11.08 Mbps)) [mW] | Ref.: Reflection percentage (1 × write drive (11.08 Mbps)) [%] | 14TM: 14TM Signal modulation rate (4 × write drive (44.32 Mbps)) | Jitter: Jitter value (4 × write drive (44.32 Mbps)) [ns] | PO: Recording power (4 × write drive (44.32 Mbps)) [mW] | Ref.: Reflection percentage (4 × write drive (44.32 Mbps)) [%] | 14TM: 14TM Signal modulation rate (8 × write drive (88.64 Mbps)) | Jitter: Jitter value (8 × write drive (88.64 Mbps)) [ns] | PO: Recording power (8 × write drive (88.64 Mbps)) [mW] | Ref.: Reflection percentage (8 × write drive (88.64 Mbps)) [%]
1 | CCN1C(=CC=CC2=[N+](CC)c3ccc4ccccc4c3C2(C)CCCCCCC2(C)C(C=CC=C3N(CC)c4ccc5ccccc5c4C3(C)C)=[N+](CC)c3ccc4ccccc4c32)C(C)(C)c2c1ccc1ccccc21.F[P-](F)(F)(F)(F)F.F[P-](F)(F)(F)(F)F (stereo not drawn) [Chemical Formula 8] | 0.68 | 7.6 | 8.5 | 70 | 0.70 | 7.5 | 14.5 | 69 | 0.68 | 7.5 | 25.0 | 70
2 | CCN1C(=CC=CC2=[N+](C)c3ccc4ccccc4c3C2(C)Cc2ccc(CC3(C)C(C=CC=C4N(CC)c5ccc6ccccc6c5C4(C)Cc4ccccc4)=[N+](C)c4ccc5ccccc5c43)cc2)C(C)(Cc2ccccc2)c2c1ccc1ccccc21.F[P-](F)(F)(F)(F)F.F[P-](F)(F)(F)(F)F (stereo not drawn) [Chemical Formula 36] | 0.58 | 7.4 | 7.0 | 53 | 0.60 | 7.0 | 11.0 | 55 | 0.63 | 6.7 | 20.0 | 57
3 | CCN1C(=CC=CC2=[N+](CC)c3ccc4ccccc4c3C2(C)CCCCC2(C)C(C=CC=C3N(CC)c4ccc5ccccc5c4C34CCCCC4)=[N+](CC)c3ccc4ccccc4c32)C2(CCCCC2)c2c1ccc1ccccc21.F[P-](F)(F)(F)(F)F.F[P-](F)(F)(F)(F)F (stereo not drawn) [Chemical Formula 3] | 0.60 | 7.8 | 8.0 | 58 | 0.62 | 7.1 | 14.0 | 57 | 0.66 | 6.8 | 22.0 | 58
4 | CCN1C(=CC=CC2=[N+](CC)c3ccc4ccccc4c3C2(C)CCCCC2(C)C(C=CC=C3N(CC)c4ccc5ccccc5c4C3(C)Cc3ccccc3)=[N+](CC)c3ccc4ccccc4c32)C(C)(Cc2ccccc2)c2c1ccc1ccccc21.F[P-](F)(F)(F)(F)F.F[P-](F)(F)(F)(F)F (stereo not drawn) [Chemical Formula 2] | 0.69 | 7.4 | 8.5 | 65 | 0.70 | 7.5 | 14.5 | 66 | 0.71 | 7.2 | 23.5 | 66
5 | CCN1C(=CC=CC2=[N+](CC)c3ccc4ccccc4c3C2(C)C)C(C)(C)c2c1ccc1ccccc21 [Chemical Formula 65, reference compound] | 0.68 | 8.0 | 12.5 | 72 | 0.68 | 8.3 | 24.5 | 71 | 0.69 | 8.5 | 36.0 | 71
6 | CCN1C(=CC=CC2=[N+](CC)c3ccc4ccccc4c3C2(C)Cc2ccccc2)C(C)(Cc2ccccc2)c2c1ccc1ccccc21 (stereo not drawn) [Chemical Formula 68, reference compound] | 0.64 | 7.8 | 10.5 | 60 | 0.66 | 7.6 | 16.5 | 61 | 0.70 | 7.5 | 27.0 | 60
